This test in a line: qHTS Assay to Find Inhibitors of Chronic Active B-Cell Receptor Signaling. The settings on record: ABC-DLBCL IkBa-CBG/CBR reporter, luminescence ratio (green luciferase fused to IkBa over red control in TMD8 lymphoma cells), 4 h. The essentials: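 Doxycycline induced both beetle luciferases in TMD8 lymphoma cells; IKK-driven degradation limits the IkappaBalpha-fused green signal, while red luminescence normalises for cell number and nonspecific effects. Compounds tested up to 46 uM, 4 hrs.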
(In general: qHTS replaces the single test concentration by a dilution series.)

Setting [1] is: measured here: CBR red luminescence, cell number.
[2] abbreviates: measured here: IkBa-CBG green luminescence.

Some of the results follow. The main result of the screen is listed elsewhere. These columns were measured beside it and carry no call. Most of these compounds were active or inconclusive in the main read-out, so they are no random draw. Words in brackets tell the shape of the fitted curve; partial curves, single points and poor fits give uncertain potencies.

63 compounds from PubChem BioAssay AID493014 (National Center for Advancing Translational Sciences (NCATS), 2011) can be followed below.

As usually defined, the AC50 is the concentration giving half of the maximal activity seen. With `Cc1ccccc1NS(=O)(=O)c1ccc(C(=O)N2CCCCCCC2)cc1`, the concentration at half-maximal activity (AC50) under setting [1] was 29.1 µM [falling, single point].
Take `Cc1cc(=O)c2ccc3ccccc3c2[nH]1`: the concentration at half-maximal activity (AC50) under setting [1] was 18.4 µM [falling, single point] and the concentration at half-maximal activity (AC50) under setting [2] was 18.4 µM [rising, partial curve, poor fit].
As to `COCC1CCN(C(=O)c2cc(COc3cccc4cnccc34)on2)CC1`, under setting [1], the concentration at half-maximal activity (AC50) is 11.2 µM [falling, single point].
With `COc1cc(C)ccc1OCC(=O)Nc1ccc2c(c1)OCO2`, the half-maximal activity concentration (AC50) under setting [1] is 25.9 µM [falling, partial curve, poor fit].
Still for that read-out and setting: the figure for `COc1cc(-c2[nH]nc3c2C(c2ccco2)C(C#N)=C(N)O3)cc(OC)c1OC` (configuration not stated) is 23.1 µM [falling, single point]; for `COc1cc(/C=C2\NC(=S)N(C)C2=O)ccc1O` it is 22.4 µM [falling, single point].
The same measure, in the same setting: the figure for `COC(=O)C(Cc1ccc(O)cc1)NC(=O)C1CCN(S(=O)(=O)c2ccc(C)cc2)CC1` (configuration not stated) is 35.5 µM [falling, single point]; for `CC(=Nc1ccc(C)cc1C)c1sc2ccccc2c1O` it is 5.62 µM [rising, single point]; for `O=C(CCS(=O)(=O)c1ccccc1)N(CCCN1CCOCC1)c1nc2c(F)cccc2s1` it is 20.6 µM [falling, single point].
Regarding `COCCNC(=O)c1snc2ccc(Cl)cc12`, under setting [1], the AC50 is 13 µM [falling, partial curve, poor fit].
The same measure, in the same setting: to `COc1ccc(OC)c(NC(=O)COc2ccc3c(c2)CCC3)c1` belongs 29.1 µM [falling, single point]; to `CC1CCCCC1NC(=O)COc1cccnc1[N+](=O)[O-]` (configuration not stated), 29.1 µM [rising, single point].
Consider `COc1ccc(NC(=O)c2ccc3ncsc3c2)cc1`, for which, under setting [1], the concentration at half-maximal activity (AC50) is 20 µM [falling, partial curve, poor fit].
With `O=C(COC(=O)C1(c2ccc(F)cc2)CCCC1)Nc1ncc(C(F)(F)F)cc1Cl`, the half-maximal activity concentration (AC50) under setting [1] was 4.11 µM [rising, partial curve, poor fit].
The same measure, in the same setting: the figure for `O=C(Nc1ccc(Cl)cc1)Nc1nnc(SCc2ccc(Cl)cc2)s1` is 16.4 µM [rising, single point].
For `O=C(COC(=O)c1ccccc1C(=O)c1ccc(Cl)cc1)NCCc1ccccc1`, the half-maximal activity concentration (AC50) under setting [1] is 5.8 µM [falling, full curve, poor fit].
On the same count and under the same terms, to `COc1ccc(N2CC(C(=O)Nc3nc4ccccc4s3)CC2=O)cc1` (configuration not stated) belongs 35.5 µM [falling, single point].
As for `C=CCN(CC=C)c1nc2ccccc2nc1C(C#N)C(=O)OC(C)C` (configuration not stated), under setting [2], the half-maximal activity concentration (AC50) is 16.4 µM [rising, partial curve, poor fit].
With `CCOC(=O)c1c(NC(=O)c2nc3n(n2)C(C(F)F)CC(C)N3)sc2c1CCCC2` (configuration not stated), the AC50 under setting [1] was 22.4 µM [rising, single point].
For `C=C1CCC[C@]2(C)C[C@H]3OC(=O)C(CN4CC(C)OC(C)C4)[C@H]3C[C@@H]12` (some centres not stated), the AC50 under setting [1] is 7.94 µM [falling, partial curve].
With `CCCc1cc(=O)[nH]c(N2CCN(Cc3ccc4c(c3)OCO4)CC2)n1`, the AC50 under setting [1] is 0.0891 µM [falling, full curve, poor fit].
For the compound `CCCCn1c(N2CCCC2)nc2c1c(=O)[nH]c(=O)n2C`, under setting [1], the AC50 was 4.47 µM [rising, full curve, poor fit].
Same read-out and setting: to `Cc1ccccc1C(=O)Nc1cccc(NC(=O)c2cccnc2)c1` belongs 11.2 µM [falling, partial curve, poor fit]; to `CCN(CC)CCCNC(=O)CCC(=O)Nc1ccc2nc(N3CCCCC3)cc(C)c2c1`, 1.26 µM [falling, full curve, poor fit].
The same measure, in the same setting: to `COC(=O)C(C)N1C(=O)S/C(=C\c2cc(C)n(-c3ccccn3)c2C)C1=O` (configuration not stated) belongs 10.3 µM [rising, partial curve, poor fit]; to `CC(NC(=O)c1ccco1)c1nc(-c2ccc(Cl)cc2)no1` (configuration not stated), 6.31 µM [rising, partial curve, poor fit].
Same read-out and setting: to `Cc1cc(C)cc(NC(=O)C(=O)NCC2CCCO2)c1` (configuration not stated) belongs 11.2 µM [falling, partial curve].
As to `CN(c1ccc(C(=O)N2CCN(Cc3ccccc3)CC2)cc1)S(=O)(=O)c1ccccc1`, the AC50 under setting [1] is 17.8 µM [falling, partial curve, poor fit].
In the case of `COc1cc(C(=S)N2CCOCC2)cc(OC)c1OC(=O)c1ccccc1[N+](=O)[O-]`, the AC50 under setting [1] was 1.12 µM [rising, full curve].
Still for that read-out and setting: the figure for `Cc1nnc(NC(=O)CSc2ccc(-c3ccccn3)nn2)s1` is 12.6 µM [rising, single point]; for `Cc1cc(NC(=O)c2cc(-c3ccc4c(c3)OCO4)on2)n(-c2ccccc2)n1` it is 35.5 µM [falling, single point].
The same measure, in the same setting: to `CNc1ccc(Oc2c(F)c(F)nc(F)c2F)cc1` belongs 25.1 µM [rising, single point].
Turning to `N#C/C(=N\Nc1ccc(S(=O)(=O)N2CCCCCC2)cc1)C(N)=S`, the concentration at half-maximal activity (AC50) reads like this: under setting [1], 11.2 µM [falling, partial curve, poor fit]; under setting [2], 8.91 µM [rising, partial curve, poor fit].
Turning to `O=C(c1ccc(F)cc1)N(Cc1ccccc1)C1CCS(=O)(=O)C1` (configuration not stated), the half-maximal activity concentration (AC50) under setting [1] was 22.4 µM [rising, single point].
Still for that read-out and setting: the figure for `O=C(Nc1cccc2cccnc12)c1cccc(Cl)c1` is 6.31 µM [falling, full curve].
For `O=C(CSc1n[nH]c(-c2cc(Cl)ccc2Cl)n1)NCCN1C(=O)CSC1=O`, under setting [1], the AC50 is 32.6 µM [rising, single point].
In the case of `CN(C)c1nc(N)nc(CSc2ncc(Cl)cc2Cl)n1`, under setting [1], the AC50 was 14.6 µM [rising, partial curve].
Same read-out and setting: the figure for `COc1ccc(NC(=O)CCn2nc(C)cc2C)cc1` is 7.31 µM [falling, partial curve]; for `COC(=O)c1ccc(/C=C/C(=O)c2ccc(OC)c(OC)c2)cc1` it is 15.8 µM [falling, single point].
`CCOc1cc(/C=C(/C#N)C(=O)Nc2ccc(O)cc2)cc(Br)c1O`: the AC50 reads like this: under setting [1], 23.1 µM [falling, partial curve]; under setting [2], 8.2 µM [falling, partial curve].
On to `O=C(CNC(=O)c1ccccc1F)c1ccccc1`, for which the AC50 under setting [1] is 7.94 µM [falling, partial curve].
The same measure, in the same setting: to `Cc1cc(-c2ccccc2)nc2oc(C(=O)NN)c(N)c12` belongs 25.1 µM [falling, single point]; to `Cc1cccc(NC(=S)Nc2cccc(C)n2)n1`, 3.98 µM [rising, single point]; to `O=C(O)CSC(C(=O)Nc1ccc(Br)cc1)c1ccc(Cl)cc1` (configuration not stated), 8.91 µM [rising, partial curve].
Same read-out and setting: the figure for `CC1CCN(C(=O)C(=O)c2cn(CC(=O)N3CCCCCC3)c3ccccc23)CC1` is 1 µM [falling, full curve, poor fit]; for `C=CCC[C@@H](Cc1ccc(F)cc1)C(=O)OC[C@@H]1CCCN1C(=O)[C@@H](CC=C)CC(=O)N(CCO)Cc1ccccc1` it is 29.1 µM [falling, single point].
For `O=C1OCc2nc3cc4c(cc3c(-c3ccc(F)cc3)c21)OCO4`, the AC50 under setting [1] was 0.316 µM [falling, full curve, poor fit].
The same measure, in the same setting: the figure for `c1ccc(C2=Nn3c(nnc3-c3cccs3)SC2)cc1` is 5.62 µM [falling, partial curve, poor fit].
On the same count and under the same terms, to `COc1ccccc1N1CCN(C/C(O)=C(\C#N)c2nc(-c3ccccc3)cs2)CC1` belongs 2.31 µM [rising, full curve, poor fit]; to `Cn1c(/N=C/c2c[nH]c3ccccc23)nc2ccccc21`, 12.6 µM [falling, partial curve, poor fit].
On the same count and under the same terms, to `Cc1ccc(NC(=O)CSc2nnc(N)s2)cc1S(=O)(=O)N1CCOCC1` belongs 29.1 µM [rising, partial curve, poor fit].
With `C/C(CC(=O)Nc1ccc(N(C)C)cc1)=N\NC(=O)c1cnccn1`, the half-maximal activity concentration (AC50) under setting [1] was 20.6 µM [falling, single point].
The same measure, in the same setting: to `c1ccc(-c2ccc(-c3ccccn3)nn2)nc1` belongs 6.31 µM [falling, partial curve, poor fit].
On to `CC#C[C@@H](CC)c1ccc2ccn(C)c2c1`, for which the concentration at half-maximal activity (AC50) under setting [1] is 18.4 µM [rising, single point] and the concentration at half-maximal activity (AC50) under setting [2] was 32.6 µM [falling, partial curve, poor fit].
Consider `O=C(Nc1ccc([N+](=O)[O-])cc1)Nc1ccc(Cl)cc1F`, for which the AC50 under setting [1] was 1.12 µM [rising, partial curve, poor fit].
With `CSc1nc(O)c(N=Nc2ccc(F)cc2F)c(=O)[nH]1`, the concentration at half-maximal activity (AC50) under setting [1] was 7.08 µM [falling, partial curve].
Still for that read-out and setting: the figure for `O=C(O)CSc1ncnc2sc(-c3ccccc3)cc12` is 14.1 µM [falling, partial curve, poor fit]; for `Cc1ccc(-c2ccc(OC(=O)c3ccc(=O)[nH]c3)c(C)c2)cc1` it is 8.91 µM [rising, partial curve].
On the same count and under the same terms, the figure for `O=C(Nc1ccc2c(c1)OCCO2)c1cccc(Cl)c1` is 11.2 µM [falling, partial curve]; for `CCC(=O)Oc1ccc(C(=O)Nc2ccc3c(c2)C(=O)N(C2CCCCC2)C3=O)cc1` it is 1.84 µM [rising, full curve, poor fit]; for `O=C(Nc1nnc(Cc2c[nH]c3ccccc23)s1)c1ccc(Cl)cc1Cl` it is 7.31 µM [falling, single point].
The same measure, in the same setting: the figure for `Clc1ccc(-n2cccc2CN2CCc3c([nH]c4ccccc34)C2c2ccccn2)nc1` (configuration not stated) is 35.5 µM [falling, single point].
Take `O=C1c2cccnc2Nc2ccccc2N1CCCF`: the half-maximal activity concentration (AC50) under setting [1] was 35.5 µM [rising, single point].
